Measurements as given in patent US10306885B2, “Anthranilic acid ester compound or salt thereof, agricultural and horticultural microbicide comprising the compound, and method for using the microbicide” (Nihon Nohyaku Co., Ltd., priority 2015, dated 2019).
Some entries share one result that the patent states for a list of compounds.

test system: wheat powdery mildew fungus Erysiphe graminis; experiment: Test of Control Effect on Wheat Powdery Mildew; type: in vivo; conditions: 200 ppm; foliar application to wheat plants (Nourin No. 61), 10 mL per pot; evaluated 7 days after inoculation

| Compound | control effect (activity level by control rate) |
| --- | --- |
| CCSc1cc(C(F)(F)F)ccc1C(=O)Nc1ccc(C(F)(C(F)(F)F)C(F)(F)F)cc1C(=O)OC [Compound 1-1, methyl 2-[2-(ethylthio)-4-(trifluoromethyl)benzoylamino]-5-heptafluoroisopropyl Benzoate] | A (the control rate is 100%) |
| CC[S+]([O-])c1cc(C(F)(F)F)ccc1C(=O)Nc1ccc(C(F)(C(F)(F)F)C(F)(F)F)cc1C(=O)OC (stereo not shown) [Compound 1-2, methyl 2-[2-(ethylsulfinyl)-4-(trifluoromethyl)benzoylamino]-5-heptafluoroisopropyl benzoate] | A (the control rate is 100%) |
| CCS(=O)(=O)c1cc(C(F)(F)F)ccc1C(=O)Nc1ccc(C(F)(C(F)(F)F)C(F)(F)F)cc1C(=O)OC [Compound 1-3, methyl 2-[2-(ethylsulfonyl)-4-(trifluoromethyl)benzoylamino]-5-heptafluoroisopropyl benzoate] | A (the control rate is 100%) |
| CCSc1cc(C(F)(F)F)ccc1C(=O)N(C(C)=O)c1ccc(C(F)(C(F)(F)F)C(F)(F)F)cc1C(=O)OC [Compound 1-7, methyl 2-[N-acetyl-N-2-(ethylthio)-4-(trifluoromethyl)benzoylamino]-5-heptafluoroisopropyl benzoate] | A (the control rate is 100%) |
| CC[S+]([O-])c1cc(C(F)(F)F)ccc1C(=O)N(C(C)=O)c1ccc(C(F)(C(F)(F)F)C(F)(F)F)cc1C(=O)OC (stereo not shown) [Compound 1-8, methyl 2-[N-acetyl-N-2-(ethylsulfinyl)-4-(trifluoromethyl)benzoylamino]-5-heptafluoroisopropyl benzoate] | A (the control rate is 100%) |
| CCS(=O)(=O)c1cc(C(F)(F)F)ccc1C(=O)N(C(C)=O)c1ccc(C(F)(C(F)(F)F)C(F)(F)F)cc1C(=O)OC [Compound 1-9, methyl 2-[N-acetyl-N-2-(ethylsulfonyl)-4-(trifluoromethyl)benzoylamino]-5-heptafluoroisopropyl benzoate] | A (the control rate is 100%) |
| CCC(=O)N(C(=O)c1ccc(C(F)(F)F)cc1S(=O)(=O)CC)c1ccc(C(F)(C(F)(F)F)C(F)(F)F)cc1C(=O)OC [Compound 1-12] | A (the control rate is 100%) |
| CCS(=O)(=O)c1cc(C(F)(F)F)ccc1C(=O)N(C(=O)C(C)C)c1ccc(C(F)(C(F)(F)F)C(F)(F)F)cc1C(=O)OC [Compound 1-18] | A (the control rate is 100%) |
| CCS(=O)(=O)c1cc(C(F)(F)F)ccc1C(=O)N(C(=O)OC)c1ccc(C(F)(C(F)(F)F)C(F)(F)F)cc1C(=O)OC [Compound 1-21] | A (the control rate is 100%) |
| CCOC(=O)N(C(=O)c1ccc(C(F)(F)F)cc1S(=O)(=O)CC)c1ccc(C(F)(C(F)(F)F)C(F)(F)F)cc1C(=O)OC [Compound 1-24] | A (the control rate is 100%) |
| CCSc1cc(C(F)(F)F)ccc1C(=O)N(COC)c1ccc(C(F)(C(F)(F)F)C(F)(F)F)cc1C(=O)OC [Compound 1-25] | A (the control rate is 100%) |
| CCOC(=O)c1cc(C(F)(C(F)(F)F)C(F)(F)F)ccc1NC(=O)c1ccc(C(F)(F)F)cc1SCC [Compound 1-31] | A (the control rate is 100%) |
| CCOC(=O)c1cc(C(F)(C(F)(F)F)C(F)(F)F)ccc1NC(=O)c1ccc(C(F)(F)F)cc1[S+]([O-])CC (stereo not shown) [Compound 1-32] | A (the control rate is 100%) |
| CCOC(=O)c1cc(C(F)(C(F)(F)F)C(F)(F)F)ccc1NC(=O)c1ccc(C(F)(F)F)cc1S(=O)(=O)CC [Compound 1-33] | A (the control rate is 100%) |
| C#CCOC(=O)c1cc(C(F)(C(F)(F)F)C(F)(F)F)ccc1N(CC#C)C(=O)c1ccc(C(F)(F)F)cc1SCC [Compound 1-42] | A (the control rate is 100%) |
| CCSc1cc(C(F)(F)F)ccc1C(=O)Nc1ccc(OC(F)(F)F)cc1C(=O)OC [Compound 1-64] | A (the control rate is 100%) |
| CCS(=O)(=O)c1cc(C(F)(F)F)ccc1C(=O)Nc1ccc(OC(F)(F)F)cc1C(=O)OC [Compound 1-66] | A (the control rate is 100%) |
| CC[S+]([O-])c1cc(C(F)(F)F)cnc1C(=O)Nc1ccc(C(F)(C(F)(F)F)C(F)(F)F)cc1C(=O)OC (stereo not shown) [Compound 3-2] | A (the control rate is 100%) |
| CCS(=O)(=O)c1cc(C(F)(F)F)cnc1C(=O)Nc1ccc(C(F)(C(F)(F)F)C(F)(F)F)cc1C(=O)OC [Compound 3-3] | A (the control rate is 100%) |
| CC[S+]([O-])c1cc(C(F)(F)F)cnc1C(=O)N(C(C)=O)c1ccc(C(F)(C(F)(F)F)C(F)(F)F)cc1C(=O)OC (stereo not shown) [Compound 3-5] | A (the control rate is 100%) |
| CCS(=O)(=O)c1cc(C(F)(F)F)cnc1C(=O)N(C(C)=O)c1ccc(C(F)(C(F)(F)F)C(F)(F)F)cc1C(=O)OC [Compound 3-6] | A (the control rate is 100%) |
| COC(=O)c1cc(C(F)(C(F)(F)F)C(F)(F)F)ccc1NC(=O)c1ccc(C(F)(F)F)cc1SC [Compound 4-1] | A (the control rate is 100%) |
| COC(=O)c1cc(C(F)(C(F)(F)F)C(F)(F)F)ccc1N(C(C)=O)C(=O)c1ccc(C(F)(F)F)cc1SC [Compound 4-4] | A (the control rate is 100%) |

| Compound | control effect (activity level by control rate) |
| --- | --- |
| COC(=O)c1cc(C(F)(C(F)(F)F)C(F)(F)F)ccc1N(C(C)=O)C(=O)c1ccc(C(F)(F)F)cc1S(C)(=O)=O [Compound 4-6] | A (the control rate is 100%) |
| CCOC(=O)c1cc(C(F)(C(F)(F)F)C(F)(F)F)ccc1NC(=O)c1ccc(C(F)(F)F)cc1SC [Compound 4-7] | A (the control rate is 100%) |
| CCOC(=O)c1cc(C(F)(C(F)(F)F)C(F)(F)F)ccc1NC(=O)c1ccc(C(F)(F)F)cc1S(C)(=O)=O [Compound 4-9] | A (the control rate is 100%) |
| CCOC(=O)c1cc(C(F)(C(F)(F)F)C(F)(F)F)ccc1N(C(C)=O)C(=O)c1ccc(C(F)(F)F)cc1S(C)(=O)=O [Compound 4-12] | A (the control rate is 100%) |
| CCCSc1cc(C(F)(F)F)ccc1C(=O)Nc1ccc(C(F)(C(F)(F)F)C(F)(F)F)cc1C(=O)OC [Compound 4-13] | A (the control rate is 100%) |
| CCCS(=O)(=O)c1cc(C(F)(F)F)ccc1C(=O)N(C(C)=O)c1ccc(C(F)(C(F)(F)F)C(F)(F)F)cc1C(=O)OC [Compound 4-18] | A (the control rate is 100%) |
| COC(=O)c1cc(C(F)(C(F)(F)F)C(F)(F)F)ccc1NC(=O)c1ccc(C(F)(F)F)cc1SC(C)C [Compound 4-25] | A (the control rate is 100%) |
| COC(=O)c1cc(C(F)(C(F)(F)F)C(F)(F)F)ccc1N(C(C)=O)C(=O)c1ccc(C(F)(F)F)cc1SC(C)C [Compound 4-28] | A (the control rate is 100%) |
| COC(=O)c1cc(C(F)(C(F)(F)F)C(F)(F)F)ccc1N(C(C)=O)C(=O)c1ccc(C(F)(F)F)cc1S(=O)(=O)C(C)C [Compound 4-30] | A (the control rate is 100%) |
| CCOC(=O)c1cc(C(F)(C(F)(F)F)C(F)(F)F)ccc1NC(=O)c1ccc(C(F)(F)F)cc1SC(C)C [Compound 4-31] | A (the control rate is 100%) |
| CCOC(=O)c1cc(C(F)(C(F)(F)F)C(F)(F)F)ccc1N(C(C)=O)C(=O)c1ccc(C(F)(F)F)cc1SC(C)C [Compound 4-34] | A (the control rate is 100%) |
| CCOC(=O)c1cc(C(F)(C(F)(F)F)C(F)(F)F)ccc1N(C(C)=O)C(=O)c1ccc(C(F)(F)F)cc1S(=O)(=O)C(C)C [Compound 4-36] | A (the control rate is 100%) |
| C=CCSc1cc(C(F)(F)F)ccc1C(=O)N(C(C)=O)c1ccc(C(F)(C(F)(F)F)C(F)(F)F)cc1C(=O)OC [Compound 4-40] | A (the control rate is 100%) |
| C=CCS(=O)(=O)c1cc(C(F)(F)F)ccc1C(=O)N(C(C)=O)c1ccc(C(F)(C(F)(F)F)C(F)(F)F)cc1C(=O)OC [Compound 4-42] | A (the control rate is 100%) |
| COC(=O)c1cc(C(F)(C(F)(F)F)C(F)(F)F)ccc1N(C(C)=O)C(=O)c1ccc(C(F)(F)F)cc1S(=O)(=O)C(C)(C)C [Compound 4-54] | A (the control rate is 100%) |
| CCS(=O)(=O)c1cc(C(F)(F)F)ccc1C(=O)N(C(C)=O)c1ccc(OC(F)(F)C(F)C(F)(F)F)cc1C(=O)OC (stereo not shown) [Compound 5-18] | A (the control rate is 100%) |
| CCSc1cc(C(F)(F)F)ccc1C(=O)N(C(C)=O)c1ccc(OC(F)(F)F)cc1C(=O)OC [Compound 5-55] | A (the control rate is 100%) |
| CCS(=O)(=O)c1cc(C(F)(F)F)ccc1C(=O)N(C(C)=O)c1ccc(OC(F)(F)F)cc1C(=O)OC [Compound 5-57] | A (the control rate is 100%) |
| CCOC(=O)c1cc(OC(F)(F)F)ccc1NC(=O)c1ccc(C(F)(F)F)cc1SCC [Compound 5-58] | A (the control rate is 100%) |
| CCOC(=O)c1cc(OC(F)(F)F)ccc1NC(=O)c1ccc(C(F)(F)F)cc1S(=O)(=O)CC [Compound 5-60] | A (the control rate is 100%) |
| CCOC(=O)c1cc(OC(F)(F)F)ccc1N(C(C)=O)C(=O)c1ccc(C(F)(F)F)cc1SCC [Compound 5-61] | A (the control rate is 100%) |
| CCOC(=O)c1cc(OC(F)(F)F)ccc1N(C(C)=O)C(=O)c1ccc(C(F)(F)F)cc1S(=O)(=O)CC [Compound 5-63] | A (the control rate is 100%) |
| CCSc1cc(Cl)ccc1C(=O)N(C(C)=O)c1ccc(OC(F)(F)F)cc1C(=O)OC [Compound 5-67] | A (the control rate is 100%) |
